# Experimental data from article PMC7544691, “Discovery of a novel EGFR ligand DPBA that degrades EGFR and suppresses EGFR-positive NSCLC growth” (Signal Transduction and Targeted Therapy, 2020).
# No constants are given. Whether binding was seen depends on the method and setting. Binding seen in cells or lysates may run through a third protein. Some binding calls cover weakened binding; strength is not graded here.
# Molecular target: EGFR (endogenous, A549 cells, EGFR WT) (human (endogenous in A549)) (UniProt P00533)
# Assay: co-IP; A549 treated with DPBA (6 μM) for 3, 6 and 12 h; lysate; EGFR immunoprecipitated with biotinylated cetuximab at 4 °C overnight and avidin agarose beads; Western blot
binder,measurement,value
"flotillin-1 (protein, UniProt O75955 1-427) MFFTCGPNEAMVVSGFCRSPPVMVAGGRVFVLPCIQQIQRISLNTLTLNVKSEKVYTRHGVPISVTGIAQVKIQGQNKEMLAAACQMFLGKTEAEIAHIALETLEGHQRAIMAHMTVEEIYKDRQKFSEQVFKVASSDLVNMGISVVSYTLKDIHDDQDYLHSLGKARTAQVQKDARIGEAEAKRDAGIREAKAKQEKVSAQYLSEIEMAKAQRDYELKKAAYDIEVNTRRAQADLAYQLQVAKTKQQIEEQRVQVQVVERAQQVAVQEQEIARREKELEARVRKPAEAERYKLERLAEAEKSQLIMQAEAEAASVRMRGEAEAFAIGARARAEAEQMAKKAEAFQLYQEAAQLDMLLEKLPQVAEEISGPLTSANKITLVSSGSGTMGAAKVTGEVLDILTRLPESVERLTGVSISQVNHKPLRTA",binding,binds
